# Test results from the supplement of paper PMC8728848.
# The other results are listed elsewhere or left out.
# Tests used:
# Assay in all cases: glycan array binding signal (z-score within array); higher = stronger binding
# Settings in all cases: glycan notation: IUPAC condensed, linker removed
# [1] = target: Neu5Ac(a2-3)Gal(b1-4)GlcNAc(b1-2)[Neu5Ac(a2-3)Gal(b1-4)GlcNAc(b1-4)]Man(a1-3)[GlcNAc(b1-4)][Neu5Ac(a2-3)Gal(b1-4)GlcNAc(b1-4)Man(a1-6)]Man(b1-4)GlcNAc(b1-4)GlcNAc
# Outline: (§1)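 Glycan array data were curated from 3228 arrays in the Consortium for Functional Glycomics database and kept only where the protein sequence was available. Glycan names were converted to IUPAC-condensed notation, and columns mapping to the same glycan were averaged. The binding signal is a within-array Z-score, averaged across arrays of the same protein sequence at different concentrations or buffers and across linkers. Negative Z-scores can be read as non-binding.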
# [2] = target: Neu5Ac(a2-3)Gal(b1-4)GlcNAc(b1-2)[Neu5Ac(a2-3)Gal(b1-4)GlcNAc(b1-6)]Man(a1-6)[Neu5Ac(a2-3)Gal(b1-4)GlcNAc(b1-2)Man(a1-3)]Man(b1-4)GlcNAc(b1-4)GlcNAc
# Outline: as §1
# [3] = target: Neu5Ac(a2-3)Gal(b1-4)GlcNAc(b1-2)[Neu5Ac(a2-3)Gal(b1-4)GlcNAc(b1-6)]Man(a1-6)[Neu5Ac(a2-3)Gal(b1-4)GlcNAc(b1-2)Man(a1-3)][GlcNAc(b1-4)]Man(b1-4)GlcNAc(b1-4)GlcNAc
# Outline: as §1
# [4] = target: Neu5Ac(a2-3)Gal(b1-4)GlcNAc(b1-3)Gal
# Outline: as §1
# [5] = target: Neu5Ac(a2-3)Gal(b1-4)GlcNAc(b1-3)Gal(b1-3)GlcNAc
# Outline: as §1
# [6] = target: Neu5Ac(a2-3)Gal(b1-4)GlcNAc(b1-3)Gal(b1-4)GlcNAc
# Outline: as §1
# [7] = target: Neu5Ac(a2-3)Gal(b1-4)GlcNAc(b1-3)Gal(b1-4)GlcNAc(b1-2)Man(a1-3)[Neu5Ac(a2-3)Gal(b1-4)GlcNAc(b1-3)Gal(b1-4)GlcNAc(b1-2)Man(a1-6)]Man(b1-4)GlcNAc(b1-4)GlcNAc
# Outline: as §1
# [8] = target: Neu5Ac(a2-3)Gal(b1-4)GlcNAc(b1-3)Gal(b1-4)GlcNAc(b1-3)Gal(b1-4)GlcNAc
# Outline: as §1
# [9] = target: Neu5Ac(a2-3)Gal(b1-4)GlcNAc(b1-3)Gal(b1-4)GlcNAc(b1-3)Gal(b1-4)GlcNAc(b1-2)Man(a1-3)[Neu5Ac(a2-3)Gal(b1-4)GlcNAc(b1-3)Gal(b1-4)GlcNAc(b1-3)Gal(b1-4)GlcNAc(b1-2)Man(a1-6)]GalNAc
# Outline: as §1
# [10] = target: Neu5Ac(a2-3)Gal(b1-4)GlcNAc(b1-3)Gal(b1-4)GlcNAc(b1-3)GalNAc
# Outline: as §1
# [11] = target: Neu5Ac(a2-3)Gal(b1-4)GlcNAc(b1-3)Gal(b1-4)GlcNAc(b1-3)[Neu5Ac(a2-3)Gal(b1-4)GlcNAc(b1-3)Gal(b1-4)GlcNAc(b1-6)]GalNAc
# Outline: as §1
# [12] = target: Neu5Ac(a2-3)Gal(b1-4)GlcNAc(b1-3)Gal(b1-4)GlcNAc(b1-6)[Gal(b1-3)]GalNAc
# Outline: as §1
# [13] = target: Neu5Ac(a2-3)Gal(b1-4)GlcNAc(b1-3)Gal(b1-4)[Fuc(a1-3)]GlcNAc
# Outline: as §1
# [14] = target: Neu5Ac(a2-3)Gal(b1-4)GlcNAc(b1-3)GalNAc
# Outline: as §1
# [15] = target: Neu5Ac(a2-3)Gal(b1-4)GlcNAc(b1-3)[Neu5Ac(a2-3)Gal(b1-4)GlcNAc(b1-6)]GalNAc
# Outline: as §1
# [16] = target: Neu5Ac(a2-3)Gal(b1-4)GlcNAc(b1-6)GalNAc
# Outline: as §1
# [17] = target: Neu5Ac(a2-3)Gal(b1-4)GlcNAc(b1-6)[Gal(b1-3)]GalNAc
# Outline: as §1
# [18] = target: Neu5Ac(a2-3)Gal(b1-4)GlcNAc(b1-6)[Neu5Ac(a2-3)Gal(b1-3)]GalNAc
# Outline: as §1
# [19] = target: Neu5Ac(a2-3)Gal(b1-4)GlcNAc6S
# Outline: as §1
# [20] = target: Neu5Ac(a2-3)Gal(b1-4)[Fuc(a1-3)]GlcNAc
# Outline: as §1
# [21] = target: Neu5Ac(a2-3)Gal(b1-4)[Fuc(a1-3)]GlcNAc(b1-2)Man
# Outline: as §1
# [22] = target: Neu5Ac(a2-3)Gal(b1-4)[Fuc(a1-3)]GlcNAc(b1-3)Gal
# Outline: as §1
# [23] = target: Neu5Ac(a2-3)Gal(b1-4)[Fuc(a1-3)]GlcNAc(b1-3)Gal(b1-4)GlcNAc
# Outline: as §1
# [24] = target: Neu5Ac(a2-3)Gal(b1-4)[Fuc(a1-3)]GlcNAc(b1-3)Gal(b1-4)[Fuc(a1-3)]GlcNAc(b1-3)Gal(b1-4)[Fuc(a1-3)]GlcNAc
# Outline: as §1
# [25] = target: Neu5Ac(a2-3)Gal(b1-4)[Fuc(a1-3)]GlcNAc(b1-3)GalNAc
# Outline: as §1
# [26] = target: Neu5Ac(a2-3)Gal(b1-4)[Fuc(a1-3)]GlcNAc(b1-6)[Gal(b1-3)]GalNAc
# Outline: as §1
# [27] = target: Neu5Ac(a2-3)Gal(b1-4)[Fuc(a1-3)]GlcNAc(b1-6)[Neu5Ac(a2-3)Gal(b1-3)]GalNAc
# Outline: as §1
# [28] = target: Neu5Ac(a2-3)Gal(b1-4)[Fuc(a1-3)]GlcNAc6S
# Outline: as §1
# [29] = target: Neu5Ac(a2-3)Gal6S(b1-4)GlcNAc
# Outline: as §1
# [30] = target: Neu5Ac(a2-3)Gal6S(b1-4)[Fuc(a1-3)]GlcNAc
# Outline: as §1
# [31] = target: Neu5Ac(a2-3)GalNAc
# Outline: as §1
# [32] = target: Neu5Ac(a2-3)GalNAc(b1-4)GlcNAc
# Outline: as §1
# [33] = target: Neu5Ac(a2-3)[GalNAc(b1-4)]Gal(b1-4)Glc
# Outline: as §1
# [34] = target: Neu5Ac(a2-3)[GalNAc(b1-4)]Gal(b1-4)GlcNAc
# Outline: as §1
# [35] = target: Neu5Ac(a2-3)[GalNAc(b1-4)]Gal(b1-4)GlcNAc(b1-3)GalNAc
# Outline: as §1
# [36] = target: Neu5Ac(a2-3)[Neu5Ac(a2-6)]GalNAc
# Outline: as §1
# [37] = target: Neu5Ac(a2-6)Gal
# Outline: as §1
binder,measurement,setting,value
GS13814A-bth-462-26-462 (Bacteroides thetaiotaomicron) (protein) DDRDNLMVNDQIGLLHSTYTETEIFRGMDTPYQLFVIKSGKGKQETEVSISVDETVLQSYNTDNGTSIQLLPSDCYTILQPALRLNDSDYRKAFDIKWNADRLSDLLSTGKEYGLPIQMSVVQNFISADDERLKTIIVPTIKEPYLQMDVPGMSPVTDFMPTFGDLNERELFVKIRTNYSNDEDISFQIEVDPQLVIDYNTAHGTAYKMLPESSFTVDNKGVILTGMKETFIKIKYHKKGLIPEEGTYLFGDYVLPLRITSVSKYGISPDAASKLYTVKFQPDPIDKKGWSVIDFNNCCTQDGGWYLNMGWGVESLIDNNPGTQWLCRWDVKEPLPYYFVFDMGKEYTLFRFGFANPVAPAAHVWAGTSKAGYVEASIDNENWVKLKDWTSPKIGEPNVNMDVPATQARYIRFVITDTYPTYDGLRVSLGEVYAWGM,glycan array binding signal (z-score),[1],0.887
same,glycan array binding signal (z-score),[2],0.177
same,glycan array binding signal (z-score),[3],-0.418
same,glycan array binding signal (z-score),[4],-0.359
same,glycan array binding signal (z-score),[5],0.098
same,glycan array binding signal (z-score),[6],1.08
same,glycan array binding signal (z-score),[7],0.327
same,glycan array binding signal (z-score),[8],0.458
same,glycan array binding signal (z-score),[9],0.012
same,glycan array binding signal (z-score),[10],-0.555
same,glycan array binding signal (z-score),[11],0.665
same,glycan array binding signal (z-score),[12],0.168
same,glycan array binding signal (z-score),[13],-1.35
same,glycan array binding signal (z-score),[14],-0.818
same,glycan array binding signal (z-score),[15],-0.235
same,glycan array binding signal (z-score),[16],0.89
same,glycan array binding signal (z-score),[17],-0.638
same,glycan array binding signal (z-score),[18],-1.71
same,glycan array binding signal (z-score),[19],1.13
same,glycan array binding signal (z-score),[20],-0.003
same,glycan array binding signal (z-score),[21],-0.803
same,glycan array binding signal (z-score),[22],-0.537
same,glycan array binding signal (z-score),[23],2.69
same,glycan array binding signal (z-score),[24],-0.314
same,glycan array binding signal (z-score),[25],2.14
same,glycan array binding signal (z-score),[26],0.115
same,glycan array binding signal (z-score),[27],-0.026
same,glycan array binding signal (z-score),[28],0.222
same,glycan array binding signal (z-score),[29],0.333
same,glycan array binding signal (z-score),[30],-0.295
same,glycan array binding signal (z-score),[31],0.161
same,glycan array binding signal (z-score),[32],0.313
same,glycan array binding signal (z-score),[33],0.015
same,glycan array binding signal (z-score),[34],0.079
same,glycan array binding signal (z-score),[35],-1.22
same,glycan array binding signal (z-score),[36],-0.956
same,glycan array binding signal (z-score),[37],0.416

# Already shown: an excerpt of the list.
binder,measurement,setting,value
GS13814A-bth-462-26-462 (Bacteroides thetaiotaomicron) (protein) DDRDNLMVNDQIGLLHSTYTETEIFRGMDTPYQLFVIKSGKGKQETEVSISVDETVLQSYNTDNGTSIQLLPSDCYTILQPALRLNDSDYRKAFDIKWNADRLSDLLSTGKEYGLPIQMSVVQNFISADDERLKTIIVPTIKEPYLQMDVPGMSPVTDFMPTFGDLNERELFVKIRTNYSNDEDISFQIEVDPQLVIDYNTAHGTAYKMLPESSFTVDNKGVILTGMKETFIKIKYHKKGLIPEEGTYLFGDYVLPLRITSVSKYGISPDAASKLYTVKFQPDPIDKKGWSVIDFNNCCTQDGGWYLNMGWGVESLIDNNPGTQWLCRWDVKEPLPYYFVFDMGKEYTLFRFGFANPVAPAAHVWAGTSKAGYVEASIDNENWVKLKDWTSPKIGEPNVNMDVPATQARYIRFVITDTYPTYDGLRVSLGEVYAWGM,glycan array binding signal (z-score),[10],-0.555
same,glycan array binding signal (z-score),[11],0.665
